This assay deals with T1, dopamine D2 receptor (Rattus norvegicus, UniProt P61169).
T1 construct: A membrane fraction obtained from rat corpus striatum was prepared as a membrane fraction of a dopamine D2 receptor; from tissue; host or cells: rat corpus striatum membrane fraction
The assay can be described thus: biochemical. In kind it is binding.

Sequences of proteins named here, by UniProt entry; tags and fusion partners are left off.
UniProt P61169, whole entry: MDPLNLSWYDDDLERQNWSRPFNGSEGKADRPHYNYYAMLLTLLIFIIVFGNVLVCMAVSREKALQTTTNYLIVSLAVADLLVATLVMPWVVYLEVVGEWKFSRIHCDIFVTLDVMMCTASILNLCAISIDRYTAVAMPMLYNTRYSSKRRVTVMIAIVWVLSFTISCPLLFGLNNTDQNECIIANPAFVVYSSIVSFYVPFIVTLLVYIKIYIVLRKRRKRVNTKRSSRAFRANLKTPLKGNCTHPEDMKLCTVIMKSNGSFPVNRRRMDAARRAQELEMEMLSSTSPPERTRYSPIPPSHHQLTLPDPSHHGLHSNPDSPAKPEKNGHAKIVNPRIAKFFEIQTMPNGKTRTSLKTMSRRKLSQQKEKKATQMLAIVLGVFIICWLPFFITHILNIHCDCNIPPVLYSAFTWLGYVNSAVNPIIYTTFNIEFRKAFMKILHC

For orientation: Ki means the dissociation constant of the complex between target and ligand, obtained from inhibition or displacement. Read a high Ki as a looser hold on the target.

Bounds are passed on as bounds.

Turning to `CN1CC[C@]23c4c5ccc(O)c4O[C@H]2[C@@H](O)C=C[C@H]3[C@H]1C5` [Morphine, reference compound], the Ki is above 1000 nM.

(Values after patent publication EP1142587A1 (priority 1998, dated 2000).)
